{"sequences": {"note": "Protein sequences, listed by entry. Tags and fused reporters are not part of them. Lines headed by an entry give the natural chain unless they say otherwise; changes in a name come on top.", "UniProt Q9NRH1": "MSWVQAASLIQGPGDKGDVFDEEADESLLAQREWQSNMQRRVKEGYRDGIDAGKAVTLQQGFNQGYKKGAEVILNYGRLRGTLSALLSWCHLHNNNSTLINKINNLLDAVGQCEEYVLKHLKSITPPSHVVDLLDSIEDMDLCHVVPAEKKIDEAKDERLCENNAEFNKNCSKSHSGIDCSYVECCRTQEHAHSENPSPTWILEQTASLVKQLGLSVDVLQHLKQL", "UniProt Q9NS23": "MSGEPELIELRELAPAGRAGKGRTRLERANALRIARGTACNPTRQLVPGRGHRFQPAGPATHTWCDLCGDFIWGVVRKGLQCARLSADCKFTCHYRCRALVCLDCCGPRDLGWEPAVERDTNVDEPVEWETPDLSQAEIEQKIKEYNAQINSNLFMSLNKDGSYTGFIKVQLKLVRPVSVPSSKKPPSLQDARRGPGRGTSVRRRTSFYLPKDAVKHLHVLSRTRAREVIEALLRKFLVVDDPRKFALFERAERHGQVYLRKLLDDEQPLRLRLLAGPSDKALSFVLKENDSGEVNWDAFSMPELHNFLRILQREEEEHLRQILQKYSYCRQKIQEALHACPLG", "UniProt Q9NYJ1, whole entry": "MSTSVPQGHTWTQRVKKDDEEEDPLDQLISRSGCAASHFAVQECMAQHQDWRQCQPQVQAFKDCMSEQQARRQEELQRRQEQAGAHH", "UniProt Q9NUK0": "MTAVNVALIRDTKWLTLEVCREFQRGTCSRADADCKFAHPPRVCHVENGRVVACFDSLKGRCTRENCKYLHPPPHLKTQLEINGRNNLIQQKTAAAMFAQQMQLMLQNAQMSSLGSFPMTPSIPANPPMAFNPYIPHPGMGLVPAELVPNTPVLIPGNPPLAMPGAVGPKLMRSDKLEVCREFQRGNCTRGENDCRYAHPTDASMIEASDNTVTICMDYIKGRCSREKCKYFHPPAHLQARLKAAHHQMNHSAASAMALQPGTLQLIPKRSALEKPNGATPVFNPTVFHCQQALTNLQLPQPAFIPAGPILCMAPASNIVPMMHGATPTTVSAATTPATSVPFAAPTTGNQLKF", "UniProt Q9NR19, whole entry": "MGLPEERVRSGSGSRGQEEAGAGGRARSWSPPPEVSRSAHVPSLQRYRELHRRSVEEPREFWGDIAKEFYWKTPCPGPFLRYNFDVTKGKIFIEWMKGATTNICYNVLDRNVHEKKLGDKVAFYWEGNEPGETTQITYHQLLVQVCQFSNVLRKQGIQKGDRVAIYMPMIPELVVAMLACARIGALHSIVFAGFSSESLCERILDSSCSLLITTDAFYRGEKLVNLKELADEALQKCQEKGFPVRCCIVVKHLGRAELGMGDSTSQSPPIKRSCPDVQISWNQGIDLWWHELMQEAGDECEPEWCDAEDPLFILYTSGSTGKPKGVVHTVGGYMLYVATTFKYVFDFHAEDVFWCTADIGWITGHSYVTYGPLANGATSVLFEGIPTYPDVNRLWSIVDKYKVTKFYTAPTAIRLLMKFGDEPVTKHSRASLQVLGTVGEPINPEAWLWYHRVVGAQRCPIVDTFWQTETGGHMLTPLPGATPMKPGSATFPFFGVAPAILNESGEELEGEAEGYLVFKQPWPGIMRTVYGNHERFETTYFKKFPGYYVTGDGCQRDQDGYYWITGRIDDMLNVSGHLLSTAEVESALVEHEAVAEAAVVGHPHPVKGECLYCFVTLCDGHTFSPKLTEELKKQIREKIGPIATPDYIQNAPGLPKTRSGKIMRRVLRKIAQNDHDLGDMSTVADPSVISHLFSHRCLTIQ", "UniProt Q9NVJ2": "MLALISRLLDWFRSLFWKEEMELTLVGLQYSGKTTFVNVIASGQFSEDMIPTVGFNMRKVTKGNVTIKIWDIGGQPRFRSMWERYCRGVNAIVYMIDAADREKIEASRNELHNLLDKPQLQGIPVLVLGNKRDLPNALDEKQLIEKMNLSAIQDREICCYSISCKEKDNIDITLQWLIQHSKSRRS", "UniProt Q9NR30": "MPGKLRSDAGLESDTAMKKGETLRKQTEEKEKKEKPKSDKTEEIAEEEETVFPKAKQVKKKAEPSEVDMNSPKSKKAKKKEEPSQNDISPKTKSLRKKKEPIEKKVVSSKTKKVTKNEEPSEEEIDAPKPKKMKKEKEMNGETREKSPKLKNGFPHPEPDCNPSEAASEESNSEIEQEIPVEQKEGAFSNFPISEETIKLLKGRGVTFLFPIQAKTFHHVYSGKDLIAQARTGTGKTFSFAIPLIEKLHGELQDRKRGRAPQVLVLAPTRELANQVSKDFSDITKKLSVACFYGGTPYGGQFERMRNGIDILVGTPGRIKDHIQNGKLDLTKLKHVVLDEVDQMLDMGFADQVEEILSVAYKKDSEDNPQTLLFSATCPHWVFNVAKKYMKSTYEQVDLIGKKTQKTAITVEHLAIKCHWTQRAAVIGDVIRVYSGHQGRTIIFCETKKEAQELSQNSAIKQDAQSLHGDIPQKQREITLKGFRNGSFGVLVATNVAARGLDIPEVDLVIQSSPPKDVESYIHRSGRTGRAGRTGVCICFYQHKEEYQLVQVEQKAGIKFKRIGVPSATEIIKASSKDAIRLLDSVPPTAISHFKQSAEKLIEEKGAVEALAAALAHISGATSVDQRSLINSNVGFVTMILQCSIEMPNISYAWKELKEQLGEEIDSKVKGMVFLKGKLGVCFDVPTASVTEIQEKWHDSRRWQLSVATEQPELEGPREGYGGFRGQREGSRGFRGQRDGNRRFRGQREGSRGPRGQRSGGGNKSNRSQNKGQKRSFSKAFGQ", "UniProt Q9NRA8": "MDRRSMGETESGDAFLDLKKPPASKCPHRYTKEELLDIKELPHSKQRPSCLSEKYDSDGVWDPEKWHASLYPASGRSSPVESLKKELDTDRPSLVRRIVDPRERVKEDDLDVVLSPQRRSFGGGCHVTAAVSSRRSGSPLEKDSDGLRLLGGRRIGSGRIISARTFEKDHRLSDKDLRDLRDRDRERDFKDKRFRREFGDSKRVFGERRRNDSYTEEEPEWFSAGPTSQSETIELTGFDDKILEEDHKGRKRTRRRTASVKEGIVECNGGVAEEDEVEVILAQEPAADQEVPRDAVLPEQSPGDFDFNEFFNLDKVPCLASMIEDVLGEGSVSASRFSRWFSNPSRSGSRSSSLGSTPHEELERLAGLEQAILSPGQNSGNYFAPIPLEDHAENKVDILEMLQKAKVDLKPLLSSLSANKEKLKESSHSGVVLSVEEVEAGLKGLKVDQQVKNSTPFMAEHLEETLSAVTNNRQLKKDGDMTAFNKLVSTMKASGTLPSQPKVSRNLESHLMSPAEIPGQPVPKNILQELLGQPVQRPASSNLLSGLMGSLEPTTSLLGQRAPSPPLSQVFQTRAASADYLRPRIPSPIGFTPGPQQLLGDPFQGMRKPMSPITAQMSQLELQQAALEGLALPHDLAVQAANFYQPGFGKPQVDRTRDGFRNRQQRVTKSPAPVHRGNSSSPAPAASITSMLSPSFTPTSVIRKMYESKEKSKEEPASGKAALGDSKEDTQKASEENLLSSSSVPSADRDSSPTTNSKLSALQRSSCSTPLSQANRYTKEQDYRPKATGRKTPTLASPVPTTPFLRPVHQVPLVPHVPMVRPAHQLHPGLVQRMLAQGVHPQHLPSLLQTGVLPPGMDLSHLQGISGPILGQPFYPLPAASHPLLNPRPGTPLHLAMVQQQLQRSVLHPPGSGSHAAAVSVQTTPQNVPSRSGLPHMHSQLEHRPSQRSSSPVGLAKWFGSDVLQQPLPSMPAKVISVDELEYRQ", "UniProt Q9NRF9": "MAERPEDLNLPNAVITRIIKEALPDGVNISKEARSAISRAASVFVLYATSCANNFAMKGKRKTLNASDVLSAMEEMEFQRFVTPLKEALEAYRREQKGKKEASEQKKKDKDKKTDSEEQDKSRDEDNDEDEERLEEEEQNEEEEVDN", "UniProt Q9NXZ1": "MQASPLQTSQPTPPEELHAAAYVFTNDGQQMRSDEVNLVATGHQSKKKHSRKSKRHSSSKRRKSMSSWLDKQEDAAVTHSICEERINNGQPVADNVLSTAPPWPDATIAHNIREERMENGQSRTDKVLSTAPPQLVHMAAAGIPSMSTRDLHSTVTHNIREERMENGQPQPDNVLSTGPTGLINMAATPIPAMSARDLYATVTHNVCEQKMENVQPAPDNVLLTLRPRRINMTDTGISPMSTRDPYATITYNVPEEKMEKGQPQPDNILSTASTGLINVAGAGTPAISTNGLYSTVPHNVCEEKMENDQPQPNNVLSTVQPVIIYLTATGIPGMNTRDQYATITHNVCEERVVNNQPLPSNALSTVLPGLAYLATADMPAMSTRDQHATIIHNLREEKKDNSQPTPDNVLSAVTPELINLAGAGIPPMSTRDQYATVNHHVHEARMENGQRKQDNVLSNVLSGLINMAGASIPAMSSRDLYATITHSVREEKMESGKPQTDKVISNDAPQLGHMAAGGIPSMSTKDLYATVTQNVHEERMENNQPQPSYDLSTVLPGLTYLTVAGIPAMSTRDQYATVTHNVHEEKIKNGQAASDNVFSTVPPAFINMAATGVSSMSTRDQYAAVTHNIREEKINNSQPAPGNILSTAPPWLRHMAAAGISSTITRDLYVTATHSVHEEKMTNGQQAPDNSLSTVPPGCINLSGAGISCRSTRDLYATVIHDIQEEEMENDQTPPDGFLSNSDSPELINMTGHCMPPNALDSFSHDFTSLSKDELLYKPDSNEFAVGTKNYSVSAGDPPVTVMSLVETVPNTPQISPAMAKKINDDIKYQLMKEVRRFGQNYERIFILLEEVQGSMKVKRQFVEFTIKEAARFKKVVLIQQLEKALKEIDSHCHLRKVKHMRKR", "UniProt Q9NRX5": "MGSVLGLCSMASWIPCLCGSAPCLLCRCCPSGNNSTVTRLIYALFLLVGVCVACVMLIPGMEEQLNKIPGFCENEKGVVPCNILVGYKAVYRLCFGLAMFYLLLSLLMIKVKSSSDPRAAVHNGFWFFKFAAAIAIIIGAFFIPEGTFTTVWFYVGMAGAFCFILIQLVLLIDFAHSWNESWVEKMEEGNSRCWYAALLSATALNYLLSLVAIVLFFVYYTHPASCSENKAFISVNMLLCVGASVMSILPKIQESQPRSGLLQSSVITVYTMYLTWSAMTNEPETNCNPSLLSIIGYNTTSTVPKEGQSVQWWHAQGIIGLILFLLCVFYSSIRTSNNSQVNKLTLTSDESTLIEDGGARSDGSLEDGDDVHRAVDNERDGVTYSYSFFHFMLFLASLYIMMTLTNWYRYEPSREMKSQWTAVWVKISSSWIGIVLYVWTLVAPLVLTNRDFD", "UniProt Q9NSC5": "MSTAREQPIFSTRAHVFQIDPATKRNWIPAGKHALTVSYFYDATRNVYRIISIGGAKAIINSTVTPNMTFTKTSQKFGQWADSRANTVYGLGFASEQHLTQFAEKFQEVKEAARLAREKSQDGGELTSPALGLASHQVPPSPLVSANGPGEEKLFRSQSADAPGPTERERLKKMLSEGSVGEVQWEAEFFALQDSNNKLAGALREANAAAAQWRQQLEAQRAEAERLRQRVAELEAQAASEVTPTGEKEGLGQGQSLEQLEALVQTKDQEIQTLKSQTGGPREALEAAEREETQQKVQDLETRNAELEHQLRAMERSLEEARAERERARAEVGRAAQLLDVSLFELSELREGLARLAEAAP", "UniProt Q9NSE2": "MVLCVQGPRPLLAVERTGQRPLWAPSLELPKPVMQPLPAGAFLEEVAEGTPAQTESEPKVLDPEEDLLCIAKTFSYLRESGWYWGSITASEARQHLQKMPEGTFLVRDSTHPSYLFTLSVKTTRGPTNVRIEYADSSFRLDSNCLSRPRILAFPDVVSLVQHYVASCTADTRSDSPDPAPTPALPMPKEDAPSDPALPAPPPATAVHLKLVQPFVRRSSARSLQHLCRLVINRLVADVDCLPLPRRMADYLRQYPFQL", "UniProt Q9NSP4": "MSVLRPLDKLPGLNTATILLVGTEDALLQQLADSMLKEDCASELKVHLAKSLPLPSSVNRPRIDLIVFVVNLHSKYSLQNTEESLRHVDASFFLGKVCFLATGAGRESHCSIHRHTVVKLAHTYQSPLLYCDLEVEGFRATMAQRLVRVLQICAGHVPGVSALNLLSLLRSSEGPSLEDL", "UniProt Q9NVI7": "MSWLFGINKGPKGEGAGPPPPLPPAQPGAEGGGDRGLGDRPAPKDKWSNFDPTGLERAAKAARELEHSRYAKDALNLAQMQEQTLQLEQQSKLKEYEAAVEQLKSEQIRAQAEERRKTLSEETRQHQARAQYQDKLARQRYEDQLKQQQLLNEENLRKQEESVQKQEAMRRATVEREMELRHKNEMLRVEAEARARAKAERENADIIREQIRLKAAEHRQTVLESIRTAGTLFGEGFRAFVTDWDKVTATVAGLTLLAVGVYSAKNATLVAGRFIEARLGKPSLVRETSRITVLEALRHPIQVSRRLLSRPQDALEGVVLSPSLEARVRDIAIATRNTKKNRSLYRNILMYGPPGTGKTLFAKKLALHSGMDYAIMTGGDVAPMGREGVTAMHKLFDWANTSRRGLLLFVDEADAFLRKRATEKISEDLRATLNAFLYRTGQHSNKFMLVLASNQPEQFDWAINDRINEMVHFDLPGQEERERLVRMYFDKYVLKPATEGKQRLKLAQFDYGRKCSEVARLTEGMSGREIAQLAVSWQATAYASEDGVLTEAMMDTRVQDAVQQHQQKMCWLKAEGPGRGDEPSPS"}, "source": "the supplement of paper PMC12819154", "about": "“High-throughput peptide-centric local stability assay extends protein–ligand identification to membrane proteins, tissues and bacteria” (Nature Structural & Molecular Biology, 2025)", "note": "This is one part of the list. Small differences around the control level are noise.", "data": [{"compound": "CN[C@@H]1C[C@H]2O[C@@](C)([C@@H]1OC)n1c3ccccc3c3c4c(c5c6ccccc6n2c5c31)C(=O)NC4 [staurosporine]", "test": "log2 fold change of tryptic peptide abundance, ligand vs vehicle (limited proteolysis) (log2 ratio); higher = more trypsin-susceptible (destabilized)", "settings": "ligand concentration: 20 uM; sample: K562 cleared lysate; digestion: 4 min, 22 C (HT-PELSA RT4min, Orbitrap Astral)", "values": [{"target": "SPHK2 (peptide sequence: AKSELTLTPDPAPPMAHSPLHR, peptide start residue: 397) (UniProt Q9NRA0)", "log2 fold change": 0.403}, {"target": "THUMPD1 (peptide sequence: LESADKSDQNNTAEGK, peptide start residue: 289) (UniProt Q9NXG2)", "log2 fold change": -0.076}, {"target": "UniProt Q9NRH1 (peptide sequence: EWQSNMQR, peptide start residue: 33)", "log2 fold change": -0.203}, {"target": "AURKAIP1 (peptide sequence: EAPEGWQTPK, peptide start residue: 184) (UniProt Q9NWT8)", "log2 fold change": 0.0883}, {"target": "SIRT5 (peptide sequence: SPICPALSGK, peptide start residue: 178) (UniProt Q9NXA8)", "log2 fold change": -0.43}, {"target": "KLHL11 (peptide sequence: RVPSSQIEC, peptide start residue: 700) (UniProt Q9NVR0)", "log2 fold change": 0.301}, {"target": "RASSF1 (peptide sequence: KPPSLQDAR, peptide start residue: 185) (UniProt Q9NS23)", "log2 fold change": 0.354}, {"target": "UniProt Q9NYJ1 (peptide sequence: VKKDDEEEDPLDQLISR, peptide start residue: 15)", "log2 fold change": -0.0832}, {"target": "UniProt Q9NUK0 (peptide sequence: WLTLEVCR, peptide start residue: 13)", "log2 fold change": -0.125}, {"target": "GDAP2 (peptide sequence: MEGDIDKQR, peptide start residue: 290) (UniProt Q9NXN4)", "log2 fold change": 0.527}, {"target": "EXOSC5 (peptide sequence: AENGTGSSPR, peptide start residue: 13) (UniProt Q9NQT4)", "log2 fold change": -0.123}, {"target": "ACSS2 (peptide sequence: YNFDVTK, peptide start residue: 82) (UniProt Q9NR19)", "log2 fold change": -0.41}, {"target": "UniProt Q9NWM3 (peptide sequence: GGGGGTAAPQELNNSRPAR, peptide start residue: 22)", "log2 fold change": 0.227}, {"target": "MRPS18A (peptide sequence: WAPGSVKPIYK, peptide start residue: 154) (UniProt Q9NVS2)", "log2 fold change": -0.127}, {"target": "UniProt Q9NUP1 (peptide sequence: AEAELGTFPR, peptide start residue: 159)", "log2 fold change": -0.196}, {"target": "UniProt Q9NVJ2 (peptide sequence: GVNAIVYMIDAADREK, peptide start residue: 88)", "log2 fold change": 0.445}, {"target": "DDX21 (peptide sequence: LHGELQDR, peptide start residue: 248) (UniProt Q9NR30)", "log2 fold change": 0.201}, {"target": "EIF4ENIF1 (peptide sequence: VKEDDLDVVLSPQRR, peptide start residue: 105) (UniProt Q9NRA8)", "log2 fold change": 0.676}, {"target": "LYRM2 (peptide sequence: SATEEDTIR, peptide start residue: 58) (UniProt Q9NU23)", "log2 fold change": 0.546}, {"target": "POLE3 (peptide sequence: KTLNASDVLSAMEEMEFQR, peptide start residue: 62) (UniProt Q9NRF9)", "log2 fold change": 0.309}, {"target": "EIF2B3 (peptide sequence: LLSALCPEEPPVHSSAQIVSK, peptide start residue: 329) (UniProt Q9NR50)", "log2 fold change": 0.444}, {"target": "SAGE1 (peptide sequence: VVLIQQLEK, peptide start residue: 876) (UniProt Q9NXZ1)", "log2 fold change": 0.169}, {"target": "UniProt Q9NVM9 (peptide sequence: TNNIELHYCTGAYR, peptide start residue: 323)", "log2 fold change": -0.407}, {"target": "SERINC1 (peptide sequence: LTLTSDESTLIEDGGAR, peptide start residue: 344) (UniProt Q9NRX5)", "log2 fold change": -0.395}, {"target": "UniProt Q9NRW1 (peptide sequence: GSDVIIMLVGNKTDLADKR, peptide start residue: 116)", "log2 fold change": 0.211}, {"target": "SPATS2L (peptide sequence: RFNPQYHNNR, peptide start residue: 436) (UniProt Q9NUQ6)", "log2 fold change": 0.301}, {"target": "ZC4H2 (peptide sequence: NAPICPLCK, peptide start residue: 199) (UniProt Q9NQZ6)", "log2 fold change": -0.249}, {"target": "NDE1 (peptide sequence: RPSSTSVPLGDKGLDTSCR, peptide start residue: 304) (UniProt Q9NXR1)", "log2 fold change": -0.304}, {"target": "HOMER3 (peptide sequence: EQPIFSTR, peptide start residue: 6) (UniProt Q9NSC5)", "log2 fold change": 0.359}, {"target": "IMP3 (peptide sequence: LKFHEQK, peptide start residue: 5) (UniProt Q9NV31)", "log2 fold change": 0.613}, {"target": "RNF216 (peptide sequence: EITNQVVPQER, peptide start residue: 187) (UniProt Q9NWF9)", "log2 fold change": -0.143}, {"target": "UBQLN4 (peptide sequence: QTMELAR, peptide start residue: 247) (UniProt Q9NRR5)", "log2 fold change": -0.375}, {"target": "CISH (peptide sequence: DSTHPSYLFTLSVK, peptide start residue: 108) (UniProt Q9NSE2)", "log2 fold change": -0.127}, {"target": "CENPM (peptide sequence: VCFLATGAGR, peptide start residue: 97) (UniProt Q9NSP4)", "log2 fold change": 0.207}, {"target": "ATAD3A (peptide sequence: SWLFGINKGPK, peptide start residue: 2) (UniProt Q9NVI7)", "log2 fold change": -0.147}, {"target": "UniProt Q9NXB0 (peptide sequence: AFMESSSLQK, peptide start residue: 498)", "log2 fold change": -0.137}, {"target": "UniProt Q9NUS5 (peptide sequence: LLAPSTSLLLR, peptide start residue: 152)", "log2 fold change": -0.376}]}]}
